No constants are given. Whether binding was seen depends on the method and setting. A result given as binding can be weak or reduced; the word gives no strength.

Protein sequences, listed by entry. Tags and fused reporters are not part of them. Lines headed by an entry give the natural chain unless they say otherwise; changes in a name come on top.
UniProt A0A482P071: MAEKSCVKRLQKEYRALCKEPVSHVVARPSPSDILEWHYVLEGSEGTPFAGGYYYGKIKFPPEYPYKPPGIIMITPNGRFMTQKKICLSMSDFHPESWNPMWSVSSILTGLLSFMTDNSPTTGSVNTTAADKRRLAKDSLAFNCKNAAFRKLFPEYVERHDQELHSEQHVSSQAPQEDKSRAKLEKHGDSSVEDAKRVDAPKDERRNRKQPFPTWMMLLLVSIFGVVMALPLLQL

This assay deals with PtoMYB156 fused to Cub (split-ubiquitin bait) (Populus tomentosa). Briefly: two-hybrid; split-ubiquitin Y2H (DUALhunter), yeast NMY51; bait fused to Cub, prey fused to NubG; growth on synthetic medium lacking Leu, Trp and His and beta-Gal activity.

In the case of “full-length PtoUBC34 fused to Nub (split-ubiquitin prey) (from UniProt A0A482P071) (enzyme)”, the binding result is “binds”.
